Data as given in patent publication USRE49339.
No constants are given. Whether binding was seen depends on the method and setting. Some binding calls cover weakened binding; strength is not graded here.

Chains of the proteins cited; added tags and fusions are not shown. Residues count along the entry.
UniProt P01027, residues 955-1303: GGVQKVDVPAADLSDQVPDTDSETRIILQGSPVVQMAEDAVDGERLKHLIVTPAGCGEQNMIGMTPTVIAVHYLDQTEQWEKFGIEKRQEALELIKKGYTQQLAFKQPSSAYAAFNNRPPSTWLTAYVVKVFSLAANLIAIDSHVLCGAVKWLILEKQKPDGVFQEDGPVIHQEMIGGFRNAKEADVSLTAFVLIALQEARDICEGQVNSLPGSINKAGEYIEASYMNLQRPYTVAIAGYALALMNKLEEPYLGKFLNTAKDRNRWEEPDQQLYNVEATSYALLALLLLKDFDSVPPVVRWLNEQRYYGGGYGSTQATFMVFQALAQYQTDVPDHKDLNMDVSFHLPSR
UniProt P20023, residues 21-148: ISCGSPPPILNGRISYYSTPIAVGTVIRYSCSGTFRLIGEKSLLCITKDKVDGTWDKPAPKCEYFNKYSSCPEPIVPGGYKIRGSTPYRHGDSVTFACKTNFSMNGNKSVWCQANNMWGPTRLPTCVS

Target: Tissue-bound C3 fragments (C3b/iC3b/C3d) in renal glomeruli of factor H deficient (fH-/-) mice (mouse) (UniProt P01027)
Experiment: 0.5 mg CR2-Fc injected into an fH-/- mouse, kidney sections stained for mouse IgG after 24 hours

Q: How did the binding turn out when “CR2-Fc, chimeric protein comprised of the iC3b/C3d binding region of human CR2 linked to the Fc region of mouse IgG1 (from UniProt P20023 21-148) (Fc fusion)” was run?
A: binds
